Percent effect of library compounds

By UniProt entry, the sequences of proteins in these tests, tags left out. Residues count along the entry.
UniProt I6X8D2, whole entry: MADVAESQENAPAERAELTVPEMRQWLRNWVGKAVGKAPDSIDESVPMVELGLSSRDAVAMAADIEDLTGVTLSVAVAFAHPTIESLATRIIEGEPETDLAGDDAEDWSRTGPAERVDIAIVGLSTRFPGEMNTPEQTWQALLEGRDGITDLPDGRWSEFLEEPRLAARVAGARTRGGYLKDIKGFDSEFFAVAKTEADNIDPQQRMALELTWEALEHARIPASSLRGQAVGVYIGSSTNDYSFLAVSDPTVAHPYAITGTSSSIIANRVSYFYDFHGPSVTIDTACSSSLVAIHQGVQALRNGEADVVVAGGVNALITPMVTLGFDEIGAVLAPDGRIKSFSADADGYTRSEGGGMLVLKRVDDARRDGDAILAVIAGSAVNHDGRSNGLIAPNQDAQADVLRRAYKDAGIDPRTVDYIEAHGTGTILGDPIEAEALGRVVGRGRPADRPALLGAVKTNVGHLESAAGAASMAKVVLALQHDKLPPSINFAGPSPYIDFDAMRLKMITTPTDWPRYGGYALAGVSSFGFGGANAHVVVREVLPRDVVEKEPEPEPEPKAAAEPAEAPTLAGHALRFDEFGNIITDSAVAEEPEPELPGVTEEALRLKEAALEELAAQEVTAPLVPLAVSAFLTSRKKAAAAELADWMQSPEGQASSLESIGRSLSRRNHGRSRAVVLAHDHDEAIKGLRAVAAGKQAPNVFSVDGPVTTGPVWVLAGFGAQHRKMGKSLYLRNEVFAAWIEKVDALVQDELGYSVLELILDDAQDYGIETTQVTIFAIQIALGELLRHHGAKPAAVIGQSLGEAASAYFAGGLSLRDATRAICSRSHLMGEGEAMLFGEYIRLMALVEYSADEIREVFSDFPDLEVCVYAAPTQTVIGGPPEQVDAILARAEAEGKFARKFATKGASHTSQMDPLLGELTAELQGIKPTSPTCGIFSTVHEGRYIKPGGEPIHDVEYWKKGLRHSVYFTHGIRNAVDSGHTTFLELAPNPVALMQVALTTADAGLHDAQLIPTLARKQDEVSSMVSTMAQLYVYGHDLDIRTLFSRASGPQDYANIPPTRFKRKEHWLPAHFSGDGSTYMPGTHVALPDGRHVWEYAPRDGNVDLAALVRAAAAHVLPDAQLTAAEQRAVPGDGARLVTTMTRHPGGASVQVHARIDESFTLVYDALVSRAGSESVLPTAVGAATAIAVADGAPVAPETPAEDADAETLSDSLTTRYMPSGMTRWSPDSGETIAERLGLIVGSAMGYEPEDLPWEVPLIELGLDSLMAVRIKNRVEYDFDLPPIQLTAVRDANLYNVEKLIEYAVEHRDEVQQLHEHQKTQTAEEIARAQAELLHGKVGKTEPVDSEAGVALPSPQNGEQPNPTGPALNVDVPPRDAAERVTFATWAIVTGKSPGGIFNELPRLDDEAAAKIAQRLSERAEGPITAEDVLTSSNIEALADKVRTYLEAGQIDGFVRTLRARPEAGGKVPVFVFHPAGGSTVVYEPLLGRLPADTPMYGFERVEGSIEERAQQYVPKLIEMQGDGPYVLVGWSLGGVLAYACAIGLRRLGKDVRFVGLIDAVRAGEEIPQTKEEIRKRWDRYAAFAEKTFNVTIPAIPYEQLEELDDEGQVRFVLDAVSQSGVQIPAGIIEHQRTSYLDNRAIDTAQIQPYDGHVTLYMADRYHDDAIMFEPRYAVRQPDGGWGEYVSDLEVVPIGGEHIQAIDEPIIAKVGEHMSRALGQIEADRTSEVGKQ
UniProt Q8IDJ8, 1-583: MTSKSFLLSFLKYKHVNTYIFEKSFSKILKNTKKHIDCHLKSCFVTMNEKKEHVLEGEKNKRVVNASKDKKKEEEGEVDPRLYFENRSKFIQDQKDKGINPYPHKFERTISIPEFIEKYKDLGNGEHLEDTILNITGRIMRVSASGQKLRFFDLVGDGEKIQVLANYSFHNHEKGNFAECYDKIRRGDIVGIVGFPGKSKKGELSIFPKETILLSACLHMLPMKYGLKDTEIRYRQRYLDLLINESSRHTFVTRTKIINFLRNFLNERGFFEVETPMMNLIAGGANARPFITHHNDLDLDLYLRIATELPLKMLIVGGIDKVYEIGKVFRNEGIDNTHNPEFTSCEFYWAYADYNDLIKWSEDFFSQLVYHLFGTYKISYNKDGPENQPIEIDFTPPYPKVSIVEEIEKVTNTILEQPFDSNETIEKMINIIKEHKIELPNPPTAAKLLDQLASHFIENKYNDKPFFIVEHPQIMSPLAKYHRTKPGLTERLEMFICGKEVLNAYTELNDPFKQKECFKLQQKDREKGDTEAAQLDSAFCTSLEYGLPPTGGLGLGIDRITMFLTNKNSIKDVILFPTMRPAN
UniProt P9WNZ1, whole entry: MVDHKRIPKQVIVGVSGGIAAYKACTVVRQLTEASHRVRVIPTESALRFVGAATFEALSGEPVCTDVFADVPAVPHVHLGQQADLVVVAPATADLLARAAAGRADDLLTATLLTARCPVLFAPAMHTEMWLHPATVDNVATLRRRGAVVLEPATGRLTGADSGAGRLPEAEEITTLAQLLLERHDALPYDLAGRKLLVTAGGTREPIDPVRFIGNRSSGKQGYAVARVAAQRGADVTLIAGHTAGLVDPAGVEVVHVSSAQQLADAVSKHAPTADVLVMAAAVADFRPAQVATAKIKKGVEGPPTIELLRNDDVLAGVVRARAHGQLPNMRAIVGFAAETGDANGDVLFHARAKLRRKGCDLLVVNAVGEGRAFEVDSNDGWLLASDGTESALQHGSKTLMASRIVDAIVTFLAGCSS

Source: ChEMBL document CHEMBL3988442, “University of Dundee, Small-Polar-MMV Screening Library” (2021).

A: 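Assay of Toxoplasma gondii numbers, read through their beta-galactosidase reporter with a colour substrate. Concentration: 10 µM. The record gives no direction; the compounds picked for IC50 retests had high values, so higher reads as fewer parasites. About 67,000 compounds were tested under these conditions; 0.38% (about 260) showed 50% or more at least once.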
B: 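Enzyme assay of the thioesterase domain of polyketide synthase 13; the read-out is not stated. Target: Polyketide synthase Pks13, Mycobacterium tuberculosis (UniProt I6X8D2). Concentration: 30 µM. Higher reads as stronger inhibition (inferred from which compounds were picked for retests). Size under these conditions: about 67,000 compounds, about 300 of them at 50% or above in at least one test.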
C: 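Enzyme assay of the cytosolic lysyl-tRNA synthetase in 384-well plates, read by luminescence. Target: Lysine-tRNA ligase, Plasmodium falciparum 3D7 (UniProt Q8IDJ8). Tested at 30 µM. Higher reads as stronger inhibition, judged from the few compounds that gave an IC50. About 69,000 compounds were tested under these conditions; 0.071% (about 49) showed 50% or more at least once.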
D: 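Enzyme assay of CoaBC with a phosphate dye (Biomol Green) read at 650 nm. Target: Coenzyme A biosynthesis protein CoaBC, Mycobacterium tuberculosis (UniProt P9WNZ1). Tested at 30 µM. Direction is inferred from only a few compounds that gave an IC50; most scored high, so higher reads as stronger inhibition. Most strong results did not repeat in a second test. Of about 67,000 compounds tested this way, about 40 (0.06%) reached 50% or more in at least one test.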

Each number is a percent effect as filed. The record does not define 0% and 100%; most values in the screen are far below 50% and negative numbers occur (in some assays of this library far below -100). The compounds are a random part of those screened.

{"compound": "Cc1nc(C(=O)N2CCCCC2)nn1-c1ccccc1Cl", "A": -25.4, "B": -13.24, "C": 0.07938, "D": -4.042}
{"compound": "O=C1CCc2cc(S(=O)(=O)NC(=O)c3ccc4c(c3)OCO4)ccc2N1", "A": -2.136, "B": 6.62, "C": 2.171, "D": 0}
{"compound": "CN1CCO[C@H]2CN(C(=O)c3ccoc3)C[C@H]21", "B": -8.908, "C": 4.75, "D": 4.665}
{"compound": "O=C(Cc1cccs1)NCC1(O)CCc2ccccc2C1", "stereo": "stereo not given", "A": -12.82, "B": -31.57, "C": 2.199, "D": 1.261}
{"compound": "COc1c(C2CCCN2C(=O)c2cc(C)on2)c(C)nn1C", "stereo": "stereo not given", "A": 0.7257, "B": -11.33, "C": 1.017, "D": 6.065}
{"compound": "CC(C)OCc1nn(C)c2c1CCN(CC1CC1)C2.O=C(O)C(F)(F)F", "A": -4.758}
{"compound": "Cc1cc(CN2CCC(C3Nc4ccccc4S(=O)(=O)N3)CC2)oc1C", "stereo": "stereo not given", "A": -5.179, "B": 12.98, "C": -2.472, "D": 3.346}
{"compound": "Cc1cnc(-c2nc(NC3CC3)ncc2-c2cc(C)no2)cn1", "A": 16.1, "B": -2.467, "C": -0.2583, "D": -1.36}
{"compound": "CCn1cnnc1C1CCN(C(=O)COc2ccccc2OC)CC1", "A": -0.5612, "B": 4.718, "C": -0.9321, "D": -1.053}
{"compound": "CC(C(=O)Nc1ccc(C#N)cc1)N1CCc2ccccc21", "stereo": "stereo not given", "A": -2.036, "B": -11.23, "C": -1.857, "D": 6.866}
{"compound": "Cc1nc(C2CCCN(C(=O)c3ccnc(N(C)C)c3)C2)no1", "stereo": "stereo not given", "A": -4.119, "B": 7.17, "C": 0.9252, "D": 2.682}
{"compound": "Cc1c2ncn(CC(=O)c3ccccc3)c(=O)c2nn1C", "A": 2.056, "B": -20.37, "C": 3.65, "D": -0.4073}
{"compound": "[H][C@@]12CN(c3nc(C)cnc3C)C[C@]1([H])N(Cc1ccccc1OC)C(=O)O2", "A": 2.934}
{"compound": "O=C1OCCN1CCNCC1(O)CCCN(CCC2CCCCC2)C1=O", "stereo": "stereo not given", "A": 14.27, "B": 6.33, "C": 1.385, "D": 5.187}
{"compound": "CC(C)NC(=O)C[C@@H]1CCNC[C@@H]1Cc1cc(-c2ccccc2)on1", "A": 0.1232, "B": -11.18, "C": 0.01217, "D": -17.74}
{"compound": "O=C1CC(N(C(=O)c2ccc3[nH]c4c(c3c2)CCCC4)C2CC2)C(=O)N1", "stereo": "stereo not given", "B": -12.11, "C": 14.28, "D": 0.5141}
{"compound": "COCc1nc(CN2CCN(c3ccc(OC)cc3)C(=O)C2C)no1", "stereo": "stereo not given", "A": -3.655, "B": -30.66, "C": 3.006, "D": 4.391}
{"compound": "N#Cc1cccc(NC2CC(=O)N(Cc3cccc(F)c3)C2)n1", "stereo": "stereo not given", "A": -8.812, "B": -7.488, "C": -0.899, "D": 0.7444}
{"compound": "CCN1CCC2(CC1)CN(C(=O)c1cccnc1)c1ccc(Cl)cc12", "B": 2.541, "C": 2.077, "D": 5.322}
{"compound": "c1coc(-c2nnc(CN3CCCC(CN4CCCCCC4)C3)o2)c1", "stereo": "stereo not given", "A": -0.9553, "B": -36.49, "C": 3.169, "D": -2.294}
{"compound": "Cc1nc(CN2CCC3(CC2)NC(=O)CC3c2cccnc2)cs1", "stereo": "stereo not given", "A": -13.54, "B": -13.8, "C": 4.85, "D": 3.294}
{"compound": "c1ccc(-n2ncc(CN3CCCC3Cn3cccn3)n2)cc1", "stereo": "stereo not given", "A": 0.2225, "B": -7.751, "C": 5.864, "D": 2.899}
{"compound": "O=C([C@H]1CCCO1)N1CCOC2(CCCN(c3ncccc3F)C2)C1", "stereo": "stereo not given in full", "B": -3.398, "C": 5.045, "D": 1.882}
{"compound": "CCn1cc(CNC(=O)CC(C)C)cn1", "A": -26.32, "B": -7.147, "C": 6.397, "D": 3.418}
{"compound": "COCCCN1CC2(CCCCN2C(=O)COC)CC1=O", "stereo": "stereo not given", "A": 6.634, "B": -24.37, "C": 4.082}
{"compound": "CCC(CO)NC(=O)Cc1ccc(NC(=O)CC2=CCCCC2)cc1", "stereo": "stereo not given", "A": -1.458, "B": -34.94, "C": 2.667, "D": -0.4274}
{"compound": "Cc1nnc([C@H]2C[C@@H]3CCN(Cc4cc(C)on4)C[C@H]3O2)[nH]1", "B": -11.4, "C": 3.01, "D": 0.3699}
{"compound": "CC(Cn1cccn1)NC(=O)Cc1cccs1", "stereo": "stereo not given", "A": 0.9104, "B": -10.75, "C": 0.8015, "D": 10.56}
{"compound": "CC(O)c1cccc(N2CCC3(CCC(=O)N(CC(N)=O)C3)CC2)n1", "stereo": "stereo not given", "A": 13.52, "B": -8.257, "C": 5.824, "D": 2.302}

Once more, the final 2:

| Compound | A | B | C | D |
|---|---|---|---|---|
| `CC(Cn1cccn1)NC(=O)Cc1cccs1` (stereo not given) | 0.9104 | -10.75 | 0.8015 | 10.56 |
| `CC(O)c1cccc(N2CCC3(CCC(=O)N(CC(N)=O)C3)CC2)n1` (stereo not given) | 13.52 | -8.257 | 5.824 | 2.302 |